Results are given in words; binding and its absence hold for the method and conditions named. Some binding calls cover weakened binding; strength is not graded here. Where a sequence is shown, tags or fusion partners need not be part of it.
Key:
Conditions in all cases: remark: other sources report otherwise
[1] = biological target: T1, recombinant His-tagged wild type murine Mts1/S100A4 protein (murine), P07091; test: dynamic light scattering, self-association at 1.5 mg/ml
[2] = biological target: T1, recombinant His-tagged wild type murine …; test: size-exclusion chromatography, self-association
[3] = biological target: T1, recombinant His-tagged wild type murine …; test: yeast two-hybrid, self-association (wt as reference)

Measured: binding

B1: recombinant His-tagged wild type murine Mts1/S100A4 protein, P07091 1-101 (protein, not shown: small tags and cut ends)
chain: MARPLEEALDVIVSTFHKYSGKEGDKFKLNKTELKELLTRELPSFLGKRTDEAAFQKVMSNLDSNRDNEVDFQEYCVFLSCIAMMCNEFFEGCPDKEPRKK
binds: all assays above
